No constants are given. Whether binding was seen depends on the method and setting. Binding calls can cover weak binding; strength is not graded here. Tags and fused reporters may be left off the sequences shown. For part of these data: In cells and extracts the contact can be indirect.
How the values were obtained:
[1] = biological target: T1, CP190, GST pull-down construct (Drosophila) (UniProt Q24478); test: pull-down; GST pull-down, performed as described previously (ref. 19); which partner carried GST is not given
T1 sequence: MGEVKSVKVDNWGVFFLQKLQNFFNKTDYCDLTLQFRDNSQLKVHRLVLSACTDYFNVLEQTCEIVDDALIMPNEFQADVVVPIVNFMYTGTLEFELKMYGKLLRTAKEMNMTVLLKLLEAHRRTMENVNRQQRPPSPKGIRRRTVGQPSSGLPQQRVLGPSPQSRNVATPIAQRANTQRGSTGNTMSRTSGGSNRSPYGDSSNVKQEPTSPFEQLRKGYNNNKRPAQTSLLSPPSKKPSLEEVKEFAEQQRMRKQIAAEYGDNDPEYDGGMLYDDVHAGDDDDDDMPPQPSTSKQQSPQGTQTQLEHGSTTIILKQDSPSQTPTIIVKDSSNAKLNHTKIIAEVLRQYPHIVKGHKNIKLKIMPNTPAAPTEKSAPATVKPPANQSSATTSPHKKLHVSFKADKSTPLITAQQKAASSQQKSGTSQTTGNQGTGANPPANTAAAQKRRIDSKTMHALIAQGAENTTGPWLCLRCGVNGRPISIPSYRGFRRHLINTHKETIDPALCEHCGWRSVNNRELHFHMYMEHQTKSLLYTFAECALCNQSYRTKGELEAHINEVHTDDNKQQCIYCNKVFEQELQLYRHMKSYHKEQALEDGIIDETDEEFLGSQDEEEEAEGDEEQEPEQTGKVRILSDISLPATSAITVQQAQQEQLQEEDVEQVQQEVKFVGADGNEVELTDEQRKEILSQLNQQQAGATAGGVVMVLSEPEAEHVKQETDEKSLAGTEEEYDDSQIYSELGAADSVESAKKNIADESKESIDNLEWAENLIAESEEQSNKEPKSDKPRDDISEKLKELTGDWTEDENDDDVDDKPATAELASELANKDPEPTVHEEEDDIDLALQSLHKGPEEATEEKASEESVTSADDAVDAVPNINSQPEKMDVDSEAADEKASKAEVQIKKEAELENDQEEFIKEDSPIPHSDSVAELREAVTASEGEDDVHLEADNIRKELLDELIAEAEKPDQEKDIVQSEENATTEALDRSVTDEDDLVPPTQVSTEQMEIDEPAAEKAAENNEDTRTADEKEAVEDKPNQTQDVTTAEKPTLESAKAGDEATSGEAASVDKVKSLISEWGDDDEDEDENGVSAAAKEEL

[2] = biological target: T2, CP190, two-hybrid fusion (Drosophila) (UniProt Q24478); test: two-hybrid; yeast two-hybrid with GAL4 fusions, in triplicate; performed as described previously (ref. 19)
T2 sequence: T1 sequence

[3] = biological target: T3, Su(Hw), GST pull-down construct (Drosophila) (UniProt P08970); test: pull-down; GST pull-down, performed as described previously (ref. 19); which partner carried GST is not given
T3 sequence: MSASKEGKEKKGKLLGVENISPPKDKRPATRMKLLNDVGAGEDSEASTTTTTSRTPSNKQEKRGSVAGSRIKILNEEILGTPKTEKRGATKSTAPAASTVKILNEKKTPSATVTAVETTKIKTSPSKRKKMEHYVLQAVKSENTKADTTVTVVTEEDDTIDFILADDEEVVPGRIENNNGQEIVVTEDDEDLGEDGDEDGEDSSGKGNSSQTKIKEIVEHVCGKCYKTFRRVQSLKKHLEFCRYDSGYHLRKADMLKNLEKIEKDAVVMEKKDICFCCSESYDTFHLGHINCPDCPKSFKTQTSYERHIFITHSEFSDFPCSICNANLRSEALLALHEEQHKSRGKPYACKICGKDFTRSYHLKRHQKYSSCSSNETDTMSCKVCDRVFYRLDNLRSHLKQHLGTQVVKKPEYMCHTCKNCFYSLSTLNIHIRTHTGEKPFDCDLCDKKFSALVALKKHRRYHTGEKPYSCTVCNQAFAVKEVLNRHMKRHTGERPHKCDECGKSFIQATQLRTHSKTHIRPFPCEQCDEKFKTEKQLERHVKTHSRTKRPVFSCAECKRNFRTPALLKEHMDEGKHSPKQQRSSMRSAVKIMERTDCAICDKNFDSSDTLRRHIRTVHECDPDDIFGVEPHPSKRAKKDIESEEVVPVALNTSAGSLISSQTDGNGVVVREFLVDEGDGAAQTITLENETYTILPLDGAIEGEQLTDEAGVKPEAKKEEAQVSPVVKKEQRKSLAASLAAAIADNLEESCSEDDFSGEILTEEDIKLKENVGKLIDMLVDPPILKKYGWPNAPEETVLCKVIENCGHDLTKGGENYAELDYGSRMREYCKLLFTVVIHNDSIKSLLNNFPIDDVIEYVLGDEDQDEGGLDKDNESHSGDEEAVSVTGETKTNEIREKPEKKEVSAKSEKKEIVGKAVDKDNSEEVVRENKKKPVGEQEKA

[4] = biological target: T4, Suppressor of Hairy-wing [Su(Hw)], two-hybrid fusion (Drosophila) (UniProt P08970); test: two-hybrid; yeast two-hybrid with GAL4 fusions, in triplicate; performed as described previously (ref. 19)
T4 sequence: T3 sequence

[5] = biological target: T5, FLAG-tagged CP190, full-length, expressed in S2 cells (Drosophila) (UniProt Q24478); test: co-IP; co-immunoprecipitation between HIPP1 and FLAG-tagged proteins expressed in S2 cells
T5 sequence: T1 sequence

[6] = biological target: T6, FLAG-tagged Su(Hw), expressed in S2 cells (Drosophila) (UniProt P08970); test: as above
T6 sequence: T3 sequence

“HIPP1 N-terminal domain, GST pull-down construct (Drosophila) (domain or fragment)” was tested, and the binding [1] was “binds”.

In the case of “HIPP1 N-terminal domain, two-hybrid fusion (Drosophila) (domain or fragment)”, the binding [2] is reported as “binds”.

For “HIPP1 crotonase domain, GST pull-down construct (Drosophila) (domain or fragment)”, the binding [3] was “binds”.

In the case of “HIPP1 crotonase domain, two-hybrid fusion (Drosophila) (domain or fragment)”, the binding [4] is reported as “binds”.

In the case of HIPP1 in S2 cells (co-IP) (Drosophila), the binding [5] is reported as “binds” and the binding [6] is reported as “binds”.

Reference: paper PMC6911044
